# In the supplement of paper PMC8047044:
# Values joined by “and” are separate entries in the source; they are usually repeats but may differ in a detail not shown here. Identical values can stand only once. Counter-ions that a name gives are not always drawn. Some of the results follow. Repeats are few or missing, and single values can be far off.
# Test system: Neuro-2a
# Assay: neurite formation score, plate-normalized to DMSO control mean 5.04 (score (0-8 scale)); higher = more or longer neurites
# Details: 10 µM
row,SMILES,neurite formation score
1,Nc1nccc(-c2c(-c3ccc(F)cc3)ncn2C2CCCCC2)n1,3.41
2,CNC(=O)c1cc(Oc2ccc(NC(=O)Nc3ccc(Cl)c(C(F)(F)F)c3)c(F)c2)ccn1 [Regorafenib hydrochloride],2.74
3,COc1cc(N2CCC(N3CCN(C)CC3)CC2)ccc1Nc1ncnc(Nc2ccccc2S(=O)(=O)C(C)C)n1,4.88
4,Cc1cc(Nc2nc(N[C@@H](C)c3ncc(F)cn3)ncc2Cl)[nH]n1,0.0903
5,COc1cc(N2CCC(N3CCN(C)CC3)CC2)ccc1Nc1ncc(Cl)c(Nc2ccccc2S(=O)(=O)C(C)C)n1,0.519
6,FC(F)c1nc2ccccc2n1-c1nc(N2CCOCC2)nc(N2CCOCC2)n1,4.19
7,Nc1nc(N)c(N=O)c(OCC2CCCCC2)n1,5.54
8,Clc1ccc(C2(c3ccc(-c4cn[nH]c4)cc3)CCNCC2)cc1,4.85
9,COc1cc2ncnc(Sc3nnc(C)s3)c2cc1OC,1.09
10,CNC(=O)c1cc(Oc2ccc(NC(=O)Nc3ccc(Cl)c(C(F)(F)F)c3)cc2)ccn1 [Sorafenib Tosylate],1.85
11,COc1cc(Nc2ncc(F)c(Nc3ccc4c(n3)N(COP(=O)(O)O)C(=O)C(C)(C)O4)n2)cc(OC)c1OC [Fostamatinib (R788)],4.09
12,Cc1ccc([N+](=O)[O-])cc1S(=O)(=O)N(C)/N=C/c1cnc2ccc(Br)cn12,4.19
13,COc1cc2ncnc(Nc3ccc(O)cc3)c2cc1OC,5.41
14,Oc1cccc(-c2nc(N3CCOCC3)c3oc4ncccc4c3n2)c1,5.21
15,Nc1cc(C(F)(F)F)c(-c2cc(N3CCOCC3)nc(N3CCOCC3)n2)cn1,0.543
16,CC(=O)Nc1cccc(-n2c(=O)n(C3CC3)c(=O)c3c(Nc4ccc(I)cc4F)n(C)c(=O)c(C)c32)c1 [Trametinib DMSO solvate],2.41
17,O=C(NOC[C@H](O)CO)c1ccc(F)c(F)c1Nc1ccc(I)cc1F,4.88
18,O=[N+]([O-])c1ccc(Nc2nc(N3CCOCC3)nc(N3CCOCC3)n2)cc1,3.86
19,C=CC(=O)Nc1cc2c(Nc3ccc(F)c(Cl)c3)ncnc2cc1OCCCN1CCOCC1 [Canertinib (CI-1033)],2.88
20,Cc1cc([C@@H](C)Nc2ccccc2C(=O)O)c2nc(N3CCOCC3)cc(=O)n2c1,4.19

row,SMILES,neurite formation score
1,Fc1cc(-c2cccc3ncc(-c4cnn(C5CCNCC5)c4)nc23)cc(F)c1CN1CCOCC1,2.76
2,COc1cc(F)c(F)c(Nc2ccc(I)cc2F)c1NS(=O)(=O)C1(C[C@H](O)CO)CC1 [Refametinib],2.76
3,CO[C@@H](C(=O)N1Cc2[nH]nc(NC(=O)c3ccc(N4CCN(C)CC4)cc3)c2C1)c1ccccc1,0.41
4,Oc1cc(O)cc(/C=C/c2ccc(O)c(O)c2)c1 [Piceatannol],5.19
5,O=C(Nc1ccc(-c2ccnc(Nc3ccc(N4CCOCC4)cc3)n2)cc1)C1CCCN1 (centres undefined),3.74
6,Cc1ccc(Nc2nccc(N(C)c3ccc4c(C)n(C)nc4c3)n2)cc1S(N)(=O)=O,4.88
7,Cc1ccc(-c2nn(C(C)(C)C)c3ncnc(N)c23)cc1,2.52
8,CC(C)(C)c1ccc(S(=O)(=O)/C=C/C#N)cc1,0.189
9,Cn1c(=O)c(F)c(Nc2ccc(I)cc2F)c2c(=O)n(C[C@@H](O)CO)cnc21,5.19
10,OCCn1cc(-c2ccc3c(c2)CC/C3=N\O)c(-c2ccncc2)n1,4.41
11,O=C1Nc2ccc(I)cc2/C1=C/c1cc(Br)c(O)c(Br)c1,0.76
12,Nc1ncnc2c1c(-c1cccc(OCc3ccccc3)c1)cn2C1CC(CN2CCC2)C1 (centres undefined),-0.124
13,Cc1ccc2nc(NCCN)c3ncc(C)n3c2c1,4.42 and 3.76
14,CN1CCN(c2ccc3nc(-c4c(N)c5c(F)cccc5[nH]c4=O)[nH]c3c2)CC1 [Dovitinib Dilactic acid],1.43
15,CCn1c(=O)c(-c2ccc(-c3cncs3)cc2Cl)cc2cnc(Nc3ccc(N4CCN(C)CC4)cc3)nc21,4.43
16,N#CC1(c2ccc(NC(=O)c3cccnc3NCc3ccncc3)cc2)CCCC1 [Apatinib],3.86
17,"CC[C@H](Nc1ncnc2[nH]cnc12)c1nc2cccc(F)c2c(=O)n1-c1ccccc1 [CAL-101 (Idelalisib, GS-1101)]",4.21
18,Nc1cccc(-c2cc3c(Oc4cccc(O)c4)ncnc3[nH]2)c1,0.855
19,O=C(NCCO)c1cccc(-c2cc(Nc3ccc(OC(F)(F)F)cc3)ncn2)c1,6.76
